Measurements reported in article PMC8790634.
Where a chain is given by its changes, count along the chain named. No constants are given. Whether binding was seen depends on the method and setting. Some results given as binding are weak or reduced against the parent protein; the word gives no strength. For part of these data: Sequences can lack the tags named with a protein.

Columns and labels:
Experiment in all cases: two-hybrid; targeted Y2H: PJ69-7A co-transformed with AD and BD clones, 0.005 OD600 cells spotted on selection plates, 30°C, 3 days
[1] = target: T1, hub1-D22A mutant (S. cerevisiae) (UniProt Q6Q546)
T1 sequence: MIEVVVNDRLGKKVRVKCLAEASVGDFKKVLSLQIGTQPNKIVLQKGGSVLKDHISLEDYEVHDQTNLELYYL

[2] = target: T2, Hub1 fused to the DNA binding domain (BD) of Gal4 at the C-terminus (S. cerevisiae) (UniProt Q6Q546)
T2 sequence: T1 sequence with A22D

[3] = target: T3, N-terminal BD-Hub1 fusion (S. cerevisiae) (UniProt Q6Q546)
T3 sequence: T1 sequence with A22D

- binding [1]: no binding
- binding [2]: binds
- binding [3]: binds
B1: Full length (FL) Snu66 (protein, UniProt Q12420 1-587)
chain: MNKTENLSIEETNEIREKLGMKPIPVFQEKNTDHKESLSIEETNELRASLGLKLIPPQQNFNSSPPNVHNTSKIDELREKITKFQKKANAPLRMAHLLEETNVNDDSSWLENMDAIPSSHESKRSSTLPRKGATKEDENIDLHNVQVSYNIEALSPKKDTILTLKESSIFDDTDSTEVLENVKAAEENADREKLRLRQMNKDRRQKKKILNVSSLDIEEEEEGEKHSITTTHLIIGAEQGVMKAPNTISAKPPTGKVKVNFDSANNMSDEDGGDFKPLKIKKRKIKDPRSTKARKSKITDKMEIVKLVDEDESLSWMEEEQPVTIINPRTSSNNELKGPEDLAREIEKARDEEKRRTESILKMREISNSIVVDEKVTFLNTLDTSLSERSATENKVKVHGEGEKNIGDVTNGHTKEGSGNNTLTEAVNNEPNYEGDAENAPNFFSGLASTLGYLRKKSVFTTGDVDLKPGKDVNNSESLRRDVRNKEHTGTGTYTKDKLHGLEQFTSSDSSNANTHSKRQDHYDPDIKLVYRDEKGNRLTTKEAYKKLSQKFHGTKSNKKKRAKMKSRIEARKNTPENGSLFEFDDN
